The target of the assay is SURF4-FLAG (UniProt O15260). Kind of assay: co-IP.

Chains of the proteins cited; added tags and fusions are not shown.
UniProt O15260: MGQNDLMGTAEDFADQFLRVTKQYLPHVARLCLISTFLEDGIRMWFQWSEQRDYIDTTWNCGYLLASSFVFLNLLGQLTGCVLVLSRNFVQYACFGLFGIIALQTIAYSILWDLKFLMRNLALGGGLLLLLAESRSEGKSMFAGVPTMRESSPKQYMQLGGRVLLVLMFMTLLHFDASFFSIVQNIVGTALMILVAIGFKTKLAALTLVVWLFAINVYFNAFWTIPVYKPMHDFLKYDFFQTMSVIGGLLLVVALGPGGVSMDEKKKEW

No constants are given. Whether binding was seen depends on the method and setting. In cells and extracts the contact can be indirect.

These results are taken from paper doi:10.1101/866954.

B1: calnexin (protein, UniProt P27824 21-592)
chain: HDGHDDDVIDIEDDLDDVIEEVEDSKPDTTAPPSSPKVTYKAPVPTGEVYFADSFDRGTLSGWILSKAKKDDTDDEIAKYDGKWEVEEMKESKLPGDKGLVLMSRAKHHAISAKLNKPFLFDTKPLIVQYEVNFQNGIECGGAYVKLLSKTPELNLDQFHDKTPYTIMFGPDKCGEDYKLHFIFRHKNPKTGIYEEKHAKRPDADLKTYFTDKKTHLYTLILNPDNSFEILVDQSVVNSGNLLNDMTPPVNPSREIEDPEDRKPEDWDERPKIPDPEAVKPDDWDEDAPAKIPDEEATKPEGWLDDEPEYVPDPDAEKPEDWDEDMDGEWEAPQIANPRCESAPGCGVWQRPVIDNPNYKGKWKPPMIDNPSYQGIWKPRKIPNPDFFEDLEPFRMTPFSAIGLELWSMTSDIFFDNFIICADRRIVDDWANDGWGLKKAADGAAEPGVVGQMIEAAEERPWLWVVYILTVALPVFLVILFCCSGKKQTSGMEYKKTDAPQPDVKEEEEEKEEEKDKGDEEEEGEEKLEEKQKSDAEEDGGTVSQEEEDRKPKAEEDEILNRSPRNRKPRRE
Take B1: the binding result is given as “no binding”.
